Results reported in PubChem BioAssay AID485353 (National Center for Advancing Translational Sciences (NCATS), 2010).
About 610 (0.18%) of roughly 330,000 compounds were called active. This list was built around the results that the source calls inconclusive (neither active nor inactive); the mix of calls is not that of the screen. Calls come from the whole dose curve. A potency beside an inconclusive call is a rough fit, not a confirmed value.

test: qHTS of Yeast-based Assay for SARS-CoV PLP; note: nearly all actives have a fitted effect of over 55% in size; for activity, positive = growth rescue: 0% is about no effect; conditions: S. cerevisiae expressing SARS-CoV PLpro; Potency: growth rescue; activity, positive = growth rescue: at 32.9 µM (top of the series)
Potency is the fitted concentration of half-maximal effect.

Compound	Potency	activity, positive = growth rescue
CCOc1ccc(NC(=O)CSc2nnc(CNC(=O)c3cccs3)o2)cc1	inconclusive: 20 µM [activator, single point]	
N#CCCN1CCN(S(=O)(=O)c2ccc(S(=O)(=O)NCC3CCCO3)cc2)CC1 (centres undefined)	inconclusive: 4.47 µM [activator, single point]	
COc1c(C)cc(S(=O)(=O)NC2CC(C)(C)NC(C)(C)C2)c(C)c1C	inconclusive: 0.398 µM [activator, full curve, poor fit]	
CC1CC1C(=O)N(C)CC(=O)Nc1ccc(Cl)c(C(F)(F)F)c1 (centres undefined)	inconclusive: 15.8 µM [activator, single point]	
CC(=O)N1CCOc2ccc(S(=O)(=O)N3CCC(C(=O)Nc4ccc(F)cc4)CC3)cc21	inconclusive: 3.16 µM [activator, single point]	
CCC(=O)c1ccc(OCC(=O)OCC(=O)N2c3ccccc3CC2C)cc1 (centres undefined)	inconclusive: 3.55 µM [activator, single point]	
CCOC(=O)c1c(N2C(=O)Nc3ccccc3N2O)sc2c1CCCCC2	inconclusive: 1 µM [activator, partial curve]	
Cc1ccc(F)c(CNC(=O)C2CCC(=O)N(CCN3CCOCC3)C2)c1F (centres undefined)	inconclusive: 3.98 µM [activator, single point]	
CC(OCC(O)CN(C)CCOc1ccccc1)c1ccc(Cl)cc1 (centres undefined)		inactive: -4.63%
CCCCCC(=O)NC(=S)Nc1ccc(N2CCOCC2)cc1	active: 12.6 µM	
CC(C)C(O)(C#CCN1CCCCC1)C(C)C	inconclusive: 0.316 µM [activator, full curve, poor fit]	
CCOC(=O)[C@@H]1[C@H]2COc3ccc(Br)cc3[C@@H]2N2C(=O)N(c3cccc(Cl)c3)C(=O)[C@@]12C	inconclusive: 11.2 µM [activator, single point]	
COc1ccc(Cl)cc1NS(=O)(=O)c1cn(C)nc1C	inconclusive: 2.51 µM [activator, full curve]	
Cc1cccc(NC(=O)C2Cc3ccccc3CN2C(=O)OCc2ccccc2)c1C (centres undefined)		inactive: -12.1%
N#CCC(=O)N/N=C/c1ccc(Sc2nc3ccccc3s2)o1		inactive: -8.85%
CCCNC(=S)Nc1ccc(Cl)cc1Cl	inconclusive: 10 µM [activator, partial curve]	
CCC(C)n1c(O)c(/C=N/NC(=O)c2ccncc2)c(=O)[nH]c1=S (centres undefined)	active: 11.2 µM	
CCOC(=O)c1oc2cccc(OCC(O)CNC(C)C)c2c1C (centres undefined)		inactive: -5.6%
CCn1cc(CN2CCC(n3nccc3NC(=O)c3cccc(F)c3)CC2)cn1	inconclusive: 10 µM [activator, partial curve]	
O=C(/C=C/Nc1ccc(Br)cc1F)c1ccccc1		inactive: -16.6%
Cc1nc2nc(-c3ccccc3)[nH]n2c(=O)c1Cc1ccccc1	inconclusive: 15.8 µM [activator, single point]	
Cc1cccc(OCC(=O)NCCCNC(=O)c2ccncc2)c1	inconclusive: 14.1 µM [activator, single point]	
O=C(O)c1cc(-c2cccc(Cl)c2)nc2nc(N3CCCCC3)sc12		inactive: 4.26%
O=C(Nc1cccc(-c2cnc3ccccc3n2)c1)c1cccc(NC(=O)c2ccco2)c1		inactive: 4.37%
Cc1c(C(=O)Nc2c3c(nn2C(C)(C)C)CS(=O)(=O)C3)cccc1[N+](=O)[O-]	inconclusive: 3.98 µM [activator, single point]	

Gathered by group: those above with a thiophene ring, fused or not
Compound	Potency	activity, positive = growth rescue
CCOc1ccc(NC(=O)CSc2nnc(CNC(=O)c3cccs3)o2)cc1	inconclusive: 20 µM [activator, single point]	
CCOC(=O)c1c(N2C(=O)Nc3ccccc3N2O)sc2c1CCCCC2	inconclusive: 1 µM [activator, partial curve]	

Following part

Compound	Potency	activity, positive = growth rescue
Cc1ccccc1NC(=O)C(C)OC(=O)CNS(=O)(=O)c1ccc(C#N)cc1 (centres undefined)	inconclusive: 20 µM [activator, single point]	
CC(=O)Nc1nc2c(C)cc(NC(=O)C3CCCCC3)cc2s1		inactive: -1.58%
Cc1nnc(-c2ccccc2)c(=O)n1/N=C/c1c(O)ccc2ccccc12	active: 3.16 µM	
Cc1ccc(C)c(S(=O)(=O)N2CCN(Cc3ccc(O)c4ncccc34)CC2)c1	inconclusive: 1 µM [activator, partial curve]	
COc1ccc(C(=O)NC(C)c2nnc(SCC(=O)Nc3nc4ccccc4s3)n2C)cc1 (centres undefined)	inconclusive: 14.1 µM [activator, single point]	
Cc1ccc(SCCCCN2C(=O)NC(C)(C)C2=O)cc1	inconclusive: 3.55 µM [activator, single point]	
CC(Sc1nnc(NCc2ccccc2)s1)C(=O)Nc1ccc2c(c1)C(=O)c1ccccc1C2=O (centres undefined)	inconclusive: 4.47 µM [activator, single point]	
CCOc1ccc(NC(=O)C(=O)NCCN2CCN(C(=O)c3ccc(C)cc3)CC2)cc1		inactive: -0.798%
O=C(Nc1ccnn1C1CCN(Cc2ccccc2OC(F)F)CC1)c1cccnc1		inactive: 0.922%
COc1cccc(C(=O)Nc2ccc(-c3nnc(-c4ccco4)o3)cc2)c1		inactive: 1.55%
O=C(OCc1ccccc1F)c1cnc(Cl)c(Cl)c1		inactive: 1.16%
O=C1C2C3C=CC(C3)C2C(=O)N1c1ccc2ccccc2c1 (centres undefined)		inactive: 4.84%
Cc1ccc(C(=O)N2CCC3(CC2)Oc2ccc(F)cc2C(=O)C32CC(c3ccccc3)=NO2)s1 (centres undefined)		inactive: 0.397%
CCOC(=O)c1c(C)oc2c1c(C(c1ccccc1)N1CCOCC1)c(O)c1ccccc12 (centres undefined)		inactive: -20.2%
O=C(CN1C(=O)c2cccc([N+](=O)[O-])c2C1=O)NNC(=O)c1ccc(F)cc1		inactive: -1.95%
Cc1c(/C(O)=C2/C(=O)C(=O)N(Cc3cccnc3)C2c2cccs2)cnn1-c1ccccc1 (centres undefined)	inconclusive: 3.55 µM [activator, single point]	
Cn1c(Sc2ccc(Br)cc2)c(C=O)c2ccccc21		inactive: -6.67%
N#CCCSc1ccccc1NC(=O)c1ccc(S(=O)(=O)N2CCCC2)cc1		inactive: -1.84%
CC(=O)c1c(C)n(-c2ccc(C)cc2)c2ccc(O)cc12	inconclusive: 17.8 µM [activator, single point]	
O=C(NCc1cccnc1)c1ccc(NS(=O)(=O)c2ccccc2)cc1	inconclusive: 4.47 µM [activator, partial curve]	
COc1ccc(C(NC(=O)c2cccnc2)c2cc(Cl)c3cccnc3c2O)cc1OC (centres undefined)	active: 2.24 µM	
Cc1ccc(/C(O)=C2/C(=O)C(=O)OC2c2ccc(Cl)cc2)cc1 (centres undefined)	inconclusive: 20 µM [activator, single point]	
CCc1ccc(Nc2cc(C)nc3nc(C)nn23)cc1	inconclusive: 10 µM [activator, partial curve, poor fit]	
COc1ccc(NC(=O)C2CCC(CNS(=O)(=O)c3cccs3)CC2)cc1OC (centres undefined)		inactive: -2.91%
O=C(CSc1nnc(-c2ccc3c(c2)OCCO3)o1)NC1CCCCC1	inconclusive: 3.55 µM [activator, single point]	

Compound	Potency	activity, positive = growth rescue
O=C(COc1ccc(Cl)cc1Cl)N/N=C/c1ccccn1	inconclusive: 20 µM [activator, single point]	
CN(CCC#N)C(=O)COC(=O)/C=C/c1cccs1		inactive: 0.327%
O=C(Nc1ccccc1)Nc1cc(OCC(F)(F)F)cc(OCC(F)(F)F)c1	inconclusive: 1.12 µM [activator, partial curve, poor fit]	
C=CCOc1c(CCC)cc(CCC)cc1C(N)=O		inactive: -0.613%
CCn1cnc2cc(NC(=O)c3ccco3)ccc21	inconclusive: 1.58 µM [activator, partial curve]	
Oc1c(C(Nc2ccccn2)c2cccnc2)cc(Cl)c2cccnc12 (centres undefined)	active: 2.51 µM	
COc1cc(NC(=S)NCCC(c2ccccc2)c2ccccc2)cc(OC)c1	inconclusive: 11.2 µM [activator, partial curve]	
O=C(c1cccc(F)c1)N1CCN(c2cc(N3CCCCC3)c(F)cc2[N+](=O)[O-])CC1		inactive: -14.7%
Cc1c(C(=O)Nc2ccc(-c3nnc4n3CCCCC4)cc2)oc2ccc(Br)cc12		inactive: -7.58%
COc1ccc(S(=O)(=O)N(CC(=O)NC2CCCC2)c2ccccc2OC)cc1	inconclusive: 3.98 µM [activator, single point]	
O=C(c1sc2ccccc2c1Cl)N(Cc1ccccc1)C1CCS(=O)(=O)C1 (centres undefined)	inconclusive: 11.2 µM [activator, partial curve]	
CCNc1nc(CN2CCOCC2)nc2sc3c(c12)CCC3		inactive: 5.23%
CC(C)(C)C(=O)CN1CCN(S(=O)(=O)c2ccc(F)cc2)CC1	inconclusive: 3.16 µM [activator, single point]	
O=C1c2ccccc2[C@@H]2C[C@@H](O)[C@H](Nc3ccccc3-c3ccccc3)CCN12	inconclusive: 0.282 µM [activator, partial curve, poor fit]	
CN(C)N1C(N)=C(C#N)C(c2cccs2)C2=C1CC(C)(C)CC2=O (centres undefined)		inactive: -3.8%
COc1ccc(C(=O)N/C(=C/c2cccc3ccccc23)C(=O)NCCc2c[nH]c3ccccc23)cc1OC		inactive: 23.3%
O=C1CN(C(=O)CSc2nnc(C3CC3)n2-c2ccccc2)c2ccccc2N1		inactive: 15.2%
O=C(CCNC(=O)c1ccc([N+](=O)[O-])cc1)NNC(=O)c1ccncc1	active: 6.31 µM	
COc1ccc(NC(=O)N2CCCC(C(=O)NCCc3ccccc3)C2)cc1 (centres undefined)	inconclusive: 0.398 µM [activator, full curve, poor fit]	
CCC(=O)Nc1cccc(-n2nnnc2SCC(=O)c2ccc(C)c(C)c2)c1	inconclusive: 2.82 µM [activator, partial curve]	
O=C(CSc1ccccc1)Nc1ccc2c(c1)OCCO2		inactive: -2.49%
COC(=O)CNC(c1ccccc1)c1cc(C)ccc1NC(=O)c1cccc(Cl)c1 (centres undefined)	inconclusive: 4.47 µM [activator, single point]	
O=C(CCn1cnc(-c2ccccc2)c1-c1ccccc1)N/N=C/c1ccccc1O	active: 10 µM	
CCCCn1c(N)c(N(CC(C)C)C(=O)c2cc(-c3ccco3)nc3ccccc23)c(=O)[nH]c1=O	inconclusive: 4.47 µM [activator, single point]	

Some of these compounds in order of SMILES length, ascending:
Compound	Potency	activity, positive = growth rescue
Cc1nc2nc(-c3ccccc3)[nH]n2c(=O)c1Cc1ccccc1	inconclusive: 15.8 µM [activator, single point]	
O=C(CCn1cnc(-c2ccccc2)c1-c1ccccc1)N/N=C/c1ccccc1O	active: 10 µM	
O=C(CN1C(=O)c2cccc([N+](=O)[O-])c2C1=O)NNC(=O)c1ccc(F)cc1		inactive: -1.95%
